Experiments:
[1] = test system: C. parvum (UGA1 Nluc expressing strain in HCT-8 cells); format: cell-based, Cryptosporidium parvum; details: initial Pathogen Box screen, single concentration 10 µM, inhibition compared to DMSO wells
Protocol: Growth inhibition and EC50 determination assays were performed using UGA1 Nluc expressing C. parvum strain in HCT-8 cells (ATCC^©, Manassas, VA) as previously described. HCT-8 cells were inoculated onto 96-well plates and allowed to grow for 48 hours to 90–100% confluence and then treated with single concentration (10 μM) or serially diluted compounds prior to oocyst infection. C. parvum oocysts were incubated for 10 minutes in 10% bleach at room temperature and then washed with DPBS. […] The cell monolayers were lysed for 1 hour before adding Nano-Glo® luciferase reagent (Promega, Madison, WI), and measuring relative luminescence units (RLU) in an EnVision Plate Reader (Perkin Elmer, Waltham, MA). Several parameters, including reproducibility and reliability, were previously evaluated to optimize this assay for low and high-throughput (HTP) screening of small molecule compounds against C. parvum. EC50 values were calculated using Prism 7 software (GraphPad Software, San Diego, CA).
C. parvum screening against the Pathogen Box compounds was performed as previously described starting at a concentration of 10 μM [23].

[2] = test system: G. lamblia trophozoites (luciferase expressing, WBC6); format: cell-based, Giardia lamblia; details: initial Pathogen Box screen, single concentration 16 µM, inhibition compared to DMSO wells
Protocol: Trophozoites were harvested by chilling cultures on ice for 30 minutes and plated by adding 150 μL per well at a concentration of 250,000 cells/mL. Metronidazole (Sigma, St. Louis, MO) was used as a control and was serially diluted 1:2 from 40 μM to 0.04 μM and 150 μL was added to the 150 μL of the G. lamblia trophozoites. Plates were covered in plastic low-evaporation lids, sealed in individual anaerobic BD GasPak Bio-Bags (Becton Dickinson, San Jose, CA) and incubated at 37 °C for 24 hours. […] A duplicate plate was concurrently set up and assayed using a MOXI Z Mini Automated Cell Counter Kit (Orflo, Ketchum, ID). Results obtained from the bioluminescence assay and the MOXI counter data were compared to evaluate their correlation to each another. Albendazole (Sigma, St. Louis, MO), an alternative giardiasis therapeutic, was assayed in concentrations from 4 μM to 0.004 μM with only the luciferase expressing G. lamblia cells. […]

CN1CCCC1CCO[C@](C)(c1ccccc1)c1ccc(Cl)cc1 (some centres unmarked) [MMV637229] was tested, and the “Crypto (10 uM) Mean % inhibition” value [1] was 85% and the “Giardia (16 uM) Mean % inhibition” value [2] was 0.0356%.
